PubChem BioAssay AID686938, Drosophila RNAi Screening Center – 2013
The deposit covers about 23,000 reagents; below is an unselected part of those with a known target gene and a result. In the full data, 75 (0.33%) were called active. 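Raw plate signals without normalisation; calls rest on plate z-scores that were not deposited; ratio present for only 364 wells.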 A number with no mark means an inactive call. A plus sign joins genes that one reagent is predicted to hit. Not stated in the record: the dose of the treatment.

Assay: 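Knock-downs reducing store-operated calcium influx in Drosophila cells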 (primary screen)
Cells: Drosophila S2R+ cells
Knock-down reagent: long dsRNA against Drosophila genes, about 0.25 µg dsRNA per well, roughly 10,000 cells
Duration: 5 days of knock-down before the calcium assay
Conditions: thapsigargin (SERCA pump blocker) to empty calcium stores; entry signal taken 4 min after adding it
Measured: 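Per-well fluo-4 fluorescence in two replicates, unnormalised, measured in resting cells and 4 min after store depletion by the SERCA blocker thapsigargin; ratio of the two present in few wells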
Reading the numbers: calcium entry signal: higher = stronger calcium signal after store depletion; resting calcium signal: higher = higher resting calcium signal
Units: calcium entry signal in fluorescence units; resting calcium signal in fluorescence units
Rule for the call: 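Called when the plate z-score of the entry-to-rest ratio, mean of duplicates, falls below −3; wells with low overall dye signal (Fmax z below −2) or more than five off-targets excluded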
Meaning of the calls: active = strongly reduced calcium entry; inactive = no strong reduction

With Cdk2 (Cyclin-dependent kinase 2) [DRSC16921], what does the deposit list?
calcium entry signal, replicate 1: 3.67e7; calcium entry signal, replicate 2: 3.46e7; resting calcium signal, replicate 1: 1.98e7; resting calcium signal, replicate 2: 1.71e7

Which result is listed for Nepl15 (Neprilysin-like 15) [DRSC15630]?
calcium entry signal, replicate 1: 3.73e7; calcium entry signal, replicate 2: 3.56e7; resting calcium signal, replicate 1: 1.64e7; resting calcium signal, replicate 2: 1.50e7

With Grip (Glutamate receptor interacting protein) [DRSC17940], what does the deposit list?
calcium entry signal, replicate 1: 2.96e7; calcium entry signal, replicate 2: 3.78e7; resting calcium signal, replicate 1: 1.56e7; resting calcium signal, replicate 2: 1.96e7

With Grip (Glutamate receptor interacting protein) [DRSC18395], what was measured?
calcium entry signal, replicate 1: 3.12e7; calcium entry signal, replicate 2: 3.87e7; resting calcium signal, replicate 1: 1.60e7; resting calcium signal, replicate 2: 1.88e7

For pnr (pannier) [DRSC17027], what does the deposit list?
calcium entry signal, replicate 1: 3.20e7; calcium entry signal, replicate 2: 2.44e7; resting calcium signal, replicate 1: 1.64e7; resting calcium signal, replicate 2: 1.27e7

For Traf6 (TNF-receptor-associated factor 6) [DRSC18725], what was measured?
calcium entry signal, replicate 1: 3.18e7; calcium entry signal, replicate 2: 4.16e7; resting calcium signal, replicate 1: 1.65e7; resting calcium signal, replicate 2: 1.90e7

What did the screen give for CG6933 [DRSC10751]?
calcium entry signal, replicate 1: 2.97e7; calcium entry signal, replicate 2: 4.35e7; resting calcium signal, replicate 1: 1.44e7; resting calcium signal, replicate 2: 3.03e7

For Idgf4 (Imaginal disc growth factor 4) [DRSC18675], what was measured?
calcium entry signal, replicate 1: 3.44e7; calcium entry signal, replicate 2: 4.90e7; resting calcium signal, replicate 1: 1.75e7; resting calcium signal, replicate 2: 2.28e7

Which result is listed for Hr38 (Hormone receptor-like in 38) [DRSC03345]?
calcium entry signal, replicate 1: 4.85e7; calcium entry signal, replicate 2: 6.25e7; resting calcium signal, replicate 1: 2.54e7; resting calcium signal, replicate 2: 2.82e7

Which result is listed for Hr38 (Hormone receptor-like in 38) [DRSC23230]?
calcium entry signal, replicate 1: 3.32e7; calcium entry signal, replicate 2: 3.98e7; resting calcium signal, replicate 1: 1.54e7; resting calcium signal, replicate 2: 1.79e7

For CG3566 [DRSC18311], what does the deposit list?
calcium entry signal, replicate 1: 3.77e7; calcium entry signal, replicate 2: 3.18e7; resting calcium signal, replicate 1: 1.80e7; resting calcium signal, replicate 2: 1.34e7

With UQCR-C2 (Ubiquinol-cytochrome c reductase core protein 2) [DRSC10405], what does the deposit list?
calcium entry signal, replicate 1: 4.84e7; calcium entry signal, replicate 2: 8.47e7; resting calcium signal, replicate 1: 2.41e7; resting calcium signal, replicate 2: 3.03e7

What did the screen give for mRRF2 (mitochondrial ribosome recycling factor 2) [DRSC16143]?
calcium entry signal, replicate 1: 3.53e7; calcium entry signal, replicate 2: 3.00e7; resting calcium signal, replicate 1: 1.64e7; resting calcium signal, replicate 2: 1.20e7

With CG32069 + Blos2 [DRSC10621], what does the deposit list?
calcium entry signal, replicate 1: 4.25e7; calcium entry signal, replicate 2: 3.27e7; resting calcium signal, replicate 1: 2.84e7; resting calcium signal, replicate 2: 1.47e7

Which result is listed for CG10953 [DRSC06021]?
calcium entry signal, replicate 1: 4.20e7; calcium entry signal, replicate 2: 5.46e7; resting calcium signal, replicate 1: 1.89e7; resting calcium signal, replicate 2: 2.65e7

For CG34196 [DRSC05704], what was measured?
calcium entry signal, replicate 1: 2.66e7; calcium entry signal, replicate 2: 3.10e7; resting calcium signal, replicate 1: 1.28e7; resting calcium signal, replicate 2: 1.48e7

With CG34283 [DRSC13313], how do the results read?
calcium entry signal, replicate 1: 4.51e7; calcium entry signal, replicate 2: 1.84e7; resting calcium signal, replicate 1: 2.24e7; resting calcium signal, replicate 2: 1.04e7

What is on record for E(spl)malpha-BFM (Enhancer of split malpha, Bearded family member) [DRSC16994]?
calcium entry signal, replicate 1: 2.97e7; calcium entry signal, replicate 2: 5.58e7; resting calcium signal, replicate 1: 1.83e7; resting calcium signal, replicate 2: 2.30e7

For rogdi [DRSC10906], what does the deposit list?
calcium entry signal, replicate 1: 2.58e7; calcium entry signal, replicate 2: 3.93e7; resting calcium signal, replicate 1: 1.31e7; resting calcium signal, replicate 2: 2.59e7

What is on record for LysS (Lysozyme S) [DRSC08677]?
calcium entry signal, replicate 1: 2.76e7; calcium entry signal, replicate 2: 2.76e7; resting calcium signal, replicate 1: 1.42e7; resting calcium signal, replicate 2: 1.29e7

With CG18418 [DRSC08535], what does the deposit list?
calcium entry signal, replicate 1: 5.47e7; calcium entry signal, replicate 2: 4.29e7; resting calcium signal, replicate 1: 3.60e7; resting calcium signal, replicate 2: 1.83e7

Just “calcium entry signal, replicate 1”, for 3 of the entries above:
CG34283 [DRSC13313]	4.51e7
E(spl)malpha-BFM (Enhancer of split malpha, Bearded family member) [DRSC16994]	2.97e7
rogdi [DRSC10906]	2.58e7
